According to publication PMC10163288:
The other results are listed elsewhere or left out.

B1: il2ra_site2_3nfp_normal_mot_HHH_b1_02369_000000291_0001_21_37_H_._HHH_b1_05396_af2_0001_0000500016_0000001_0 (protein)
chain: SSSSDERERAEELLKEVEELEEEGDRFELLRLLAEATHVAARANDEEIARRLLEIFAELQSSSSS
B2: il2ra_site2_2erj_normal_mot_HHH_b2_06005_000000006_0001_1_15_H_._HHH_b2_01138_af2_0001_0001100031_0000001_0_af2pred_0001_af2pred (protein)
chain: SSSSSELEERVRELLEEAKRIEDPDEALAVLSEAFELVLKNDDEELEEEVLRVLREVNNRSSSSS
B3: il2ra_site2_2erj_sap_27_mot_HHH_b2_04662_000000013_0001_42_56_H_._HHH_b2_03290_0001_0000400030_0000001_0_0001 (protein)
chain: SSSSDLEERVEELLEQVEELRENGDPLRAYSLLAEASLLAFRHNNEELLKKIAEVTRRVWESSSS
B4: il2ra_site2_2erj_normal_mot_HHH_b1_06554_af2_000000190_0001_44_57_H_._HHH_b1_08046_af2_0001_0001100032_0000001_0 (protein)
chain: SSSSSDTLEELEELAEELAEEGDRAYLELILRYLELNREDDNNDEVREAYRIVEELLQRLSSSSS
B5: il2ra_site1_3nfp_normal_mot_HHH_b1_00630_af2_000000193_0001_42_55_H_._56b2e862c5d7020fcb9d25388f5aedda_0001_0001_0000100013_0000001_0 (protein)
chain: DVAERLLEEAKKDGSLKAVSSVARAVAFHRRDPELEERIRELAEKAEENPEVREELIRLAEELLK
B6: il2ra_site1_3nfp_sap_17_mot_HHH_b1_00258_000000025_0001_42_56_H_._HHH_b1_04957_af2_0001_0000600026_0000001_0_0001_af2pred_0001_af2pred_swapped (protein)
chain: STVAIFLELAEKDKGDPEKAIERIIKAIERLRRVPPEEALEFLLEVARRLGNPELERIIEELLRK
B7: il2ra_site2_3nfp_normal_mot_HHH_b2_05513_000000198_0001_20_37_H_._52c50354b804bec8c3157ba16786ada3_0001_0001_0001000025_0000001_0_af2pred_0001_1_af2pred_swapped (protein)
chain: DDLEERLRRSAELAGDPHDAVVFFIAFLEYELGDPEEAIELALEVAEELGDPELERIIRELRKLP
B8: il2ra_site2_3nfp_sap_32_mot_HHH_b1_00050_000000292_0001_22_38_H_._HHH_b2_06764_0001_0000600039_0000001_0_0001 (protein)
chain: SSSSDESEEYFEAAFELVRLALEAGDPEAARRLLEMLELVAESQNDPELQRLVEELEEELSSSSS
B9: il2ra_site1_3nfp_sap_19_mot_ems_3hC_775_af2_000000072_0001_42_60_H_._7b9cde51a6333c7db752d4c93e9fe982_0001_af2_0001_0000100009_0000001_0_0001_af2pred_0001_af2pr … (protein)
chain: SSSSSREEVYKLLEEALRAAFNGNPEEAREILEEAEKIAKENNNEKAQKAVEKLEKSIKKGSSSS
B10: il2ra_site1_1z92_normal_mot_HHH_b2_00879_000000067_0001_1_17_H_._ems_3hC_963_0001_0000100004_0000001_0_af2pred_0001_af2pred (protein)
chain: SDAEEYFEKLLEEVRRIAEEKNNEEVRKLVEEAEELWKEAEEKDDFRASHEAMRIVIKARTLANS
B11: il2ra_site2_2erj_normal_mot_HHH_eva_0356_af2_000000103_0001_44_59_H_._ems_3hM_3512_0001_0000400007_0000001_0 (protein)
chain: SSNFVELLYELLRLADEAAENNDEELLREVEELIEEIRKEATDDAAREMAERALQMVEHVANASS
B12: il2ra_site1_1z92_sap_11_mot_HHH_b2_08161_000000286_0001_23_39_H_._c9d962b5daa49a68032752cb3d68fa00_0001_1_0002_0000200020_0000001_0_0001_af2pred_0001_af2pred (protein)
chain: GEELLKKIEEKAGGDPARIEQILLDLAHEALRKNDEELLEEVIEAIALLSDTPPEWARKQAEAVP
B13: il2ra_site1_1z92_sap_33_mot_HHH_b2_03816_af2_000000009_0001_40_54_H_._HHH_b2_06209_af2_0001_0000400019_0000001_0_0001_af2pred_0001_af2pred (protein)
chain: SSSSDLEEAAERLVEEIVEKLGLSEEQERVLRRLAELAVEAGLSERSIKRALEREAEFDRSSSSS
B14: il2ra_site2_2erj_sap_19_mot_HHH_b1_08207_af2_000000250_0001_43_57_H_._HHH_b1_06013_af2_0001_0000200012_0000001_0_0001 (protein)
chain: SSSSEEAEELLEKAEELLKKGNPEEAWRVLRRAATLAFRLGDEELFARLAELFEEAARLDVSSSS
B15: il2ra_site1_3nfp_sap_8_mot_HHH_b1_05162_af2_000000139_0001_1_18_H_._HHH_b2_03092_0001_0000300045_0000001_0_0001 (protein)
chain: SSSSDESEEVLEEVEELLREAWERGDVELYYEIARRAVEILEELNDPEALQRLFELAKHISSSSS
B16: il2ra_site2_2erj_sap_29_mot_HHH_b1_06627_000000072_0001_40_54_H_._HHH_b2_07310_af2_0001_0000100002_0000001_0_0001 (protein)
chain: SSSSDEEVLEAIEWAAEEEAKKDPEKARLYLELAERFAEISGDEEALERIEELLEELRKGSSSSS
B17: il2ra_site2_3nfp_normal_mot_HHH_b1_07242_000000112_0001_19_39_H_._ems_3hM_250_0001_0000100001_0000001_0 (protein)
chain: SNEELEEYIEVALRLAKEAARDPEIREKIEEVLEEFEKAKEKNDEHALSEVLQLALELAKEAAKS
B18: il2ra_site2_3nfp_normal_mot_HHH_b1_02297_000000279_0001_41_58_H_._HHH_b1_05936_0001_0000200007_0000001_0 (protein)
chain: SSSSDEEVRQLIEEAERLLEEGNPEEAFRVAAEASRIAFELNDFELFAAVNELAERIIRGSSSSS

target: il2ra, P01589; assay: yeast display titration

Apparent Kd, inactive:
B1 no binding seen, B2 no binding seen, B3 no binding seen, B4 no binding seen, B5 no binding seen, B6 no binding seen, B7 no binding seen, B8 no binding seen, B9 no binding seen, B10 no binding seen, B11 no binding seen, B12 no binding seen, B13 no binding seen, B14 no binding seen, B15 no binding seen, B16 no binding seen, B17 no binding seen, B18 no binding seen
